# These are yes or no findings as the source states them, for the method shown. Binding seen in cells or lysates may run through a third protein. These calls come from enrichment with a bait or labelling near it, and not all partners need be listed. Tags and fused reporters may be left off the sequences shown.
# Protein sequences, listed by entry. Tags and fused reporters are not part of them.
# UniProt P26641: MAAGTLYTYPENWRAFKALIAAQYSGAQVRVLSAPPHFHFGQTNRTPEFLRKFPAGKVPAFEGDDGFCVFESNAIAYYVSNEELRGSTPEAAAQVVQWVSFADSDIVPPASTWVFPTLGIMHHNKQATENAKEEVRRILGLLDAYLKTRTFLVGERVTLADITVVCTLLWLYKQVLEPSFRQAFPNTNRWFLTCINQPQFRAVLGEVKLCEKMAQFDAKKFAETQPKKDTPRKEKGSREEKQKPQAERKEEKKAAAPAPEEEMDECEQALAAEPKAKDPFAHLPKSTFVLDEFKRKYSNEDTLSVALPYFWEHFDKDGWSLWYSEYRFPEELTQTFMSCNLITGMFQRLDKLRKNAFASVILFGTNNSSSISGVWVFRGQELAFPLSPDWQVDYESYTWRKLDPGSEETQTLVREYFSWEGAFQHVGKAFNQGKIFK
# UniProt P67809: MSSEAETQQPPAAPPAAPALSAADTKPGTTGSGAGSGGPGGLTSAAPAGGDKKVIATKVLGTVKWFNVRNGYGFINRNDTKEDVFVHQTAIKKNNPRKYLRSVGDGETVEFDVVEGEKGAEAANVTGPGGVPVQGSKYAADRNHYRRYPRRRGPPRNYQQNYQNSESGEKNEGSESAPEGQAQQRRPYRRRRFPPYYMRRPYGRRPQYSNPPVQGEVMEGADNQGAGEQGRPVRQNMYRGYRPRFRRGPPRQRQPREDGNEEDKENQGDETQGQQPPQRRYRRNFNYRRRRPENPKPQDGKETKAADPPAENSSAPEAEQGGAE
# T1: SNX10-EGFP WT (sorting nexin 10, EGFP-tagged) (human) (UniProt Q9Y5X0)
# T1 sequence: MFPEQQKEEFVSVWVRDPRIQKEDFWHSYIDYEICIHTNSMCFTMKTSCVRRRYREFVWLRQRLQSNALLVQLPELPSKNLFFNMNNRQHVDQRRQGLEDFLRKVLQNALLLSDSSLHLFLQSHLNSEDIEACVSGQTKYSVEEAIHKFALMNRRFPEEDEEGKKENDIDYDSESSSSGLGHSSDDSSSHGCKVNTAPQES
# Target: T1, SNX10-EGFP WT (sorting nexin 10, EGFP-tagged) (human)
# Assay: affinity purification with mass spectrometry; GFP-Trap (ChromoTek) pull-down from lysates of U2OS cells stably expressing SNX10-EGFP, SNX10(Y32S)-EGFP or EGFP (control); NP-40 lysis buffer (50 mM HEPES pH 7.4, 150 mM NaCl, 1 mM EDTA, 10% glycerol, 0.5% NP-40); on-bead trypsin digest, LC-MS/MS, biological triplicates; hits by limma, log2FC >1 and adjusted P <0.05 against EGFP
row,binding,Molecule
1,binds,UQCRFS1 (human (endogenous in U2OS))
2,binds,EEF1G (from UniProt P26641 1-437)
3,binds,YBX1 (from UniProt P67809 1-324)
4,binds,MVB12A (from UniProt Q96EY5 1-273)
5,binds,"GBA (protein, UniProt P04062 40-536) ARPCIPKSFGYSSVVCVCNATYCDSFDPPTFPALGTFSRYESTRSGRRMELSMGPIQANHTGTGLLLTLQPEQKFQKVKGFGGAMTDAAALNILALSPPAQNLLLKSYFSEEGIGYNIIRVPMASCDFSIRTYTYADTPDDFQLHNFSLPEEDTKLKIPLIHRALQLAQRPVSLLASPWTSPTWLKTNGAVNGKGSLKGQPGDIYHQTWARYFVKFLDAYAEHKLQFWAVTAENEPSAGLLSGYPFQCLGFTPEHQRDFIARDLGPTLANSTHHNVRLLMLDDQRLLLPHWAKVVLTDPEAAKYVHGIAVHWYLDFLAPAKATLGETHRLFPNTMLFASEACVGSKFWEQSVRLGSWDRGMQYSHSIITNLLYHVVGWTDWNLALNPEGGPNWVRNFVDSPIIVDITKDTFYKQPMFYHLGHFSKFIPEGSQRVGLVASQKNDLDAVALMHPDGSAVVVVLNRSSKDVPLTIKDPAVGFLETISPGYSIHTYLWRRQ"
6,binds,"ATP5J, a subunit of the mitochondrial ATP synthase (protein, UniProt P18859 33-108) NKELDPIQKLFVDKIREYKSKRQTSGGPVDASSEYQQELERELFKLKQMFGNADMNTFPTFKFEDPKFEVIEKPQA"
7,binds,"SERPINH1 (protein, UniProt P50454 19-418) AEVKKPAAAAAPGTAEKLSPKAATLAERSAGLAFSLYQAMAKDQAVENILVSPVVVASSLGLVSLGGKATTASQAKAVLSAEQLRDEEVHAGLGELLRSLSNSTARNVTWKLGSRLYGPSSVSFADDFVRSSKQHYNCEHSKINFRDKRSALQSINEWAAQTTDGKLPEVTKDVERTDGALLVNAMFFKPHWDEKFHHKMVDNRGFMVTRSYTVGVMMMHRTGLYNYYDDEKEKLQIVEMPLAHKLSSLIILMPHHVEPLERLEKLLTKEQLKIWMGKMQKKAVAISLPKGVVEVTHDLQKHLAGLGLTEAIDKNKADLSRMSGKKDLYLASVFHATAFELDTDGNPFDQDIYGREELRSPKLFYADHPFIFLVRDTQSGSLLFIGRLVRPKGDKMRDEL"
8,binds,"SLC25A6 (protein, UniProt P12236 1-298) MTEQAISFAKDFLAGGIAAAISKTAVAPIERVKLLLQVQHASKQIAADKQYKGIVDCIVRIPKEQGVLSFWRGNLANVIRYFPTQALNFAFKDKYKQIFLGGVDKHTQFWRYFAGNLASGGAAGATSLCFVYPLDFARTRLAADVGKSGTEREFRGLGDCLVKITKSDGIRGLYQGFSVSVQGIIIYRAAYFGVYDTAKGMLPDPKNTHIVVSWMIAQTVTAVAGVVSYPFDTVRRRMMMQSGRKGADIMYTGTVDCWRKIFRDEGGKAFFKGAWSNVLRGMGGAFVLVLYDELKKVI"
9,binds,"ATPIF1 (protein, UniProt Q9UII2 26-106) GSDQSENVDRGAGSIREAGGAFGKREQAEEERYFRAQSREQLAALKKHHEEEIVHHKKEIERLQKEIERHKQKIKMLKHDD"

# Reference: paper PMC11893173
